PubChem BioAssay AID1159579 – Peter MacCallum Cancer Centre – 2015
Screen: 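Find genes whose silencing alters migration of lymphatic endothelial cells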 (follow-up of hits). System: human dermal lymphatic endothelial cells. Reagent: single siRNA against human genes, 25 nM. Measured: 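High content images of wound closure area and cell nuclei counts, each the average of two wells, expressed against mock transfection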. Direction: migration relative to mock: higher = more migration into the scratch; mean nuclei count: higher = more cells remaining. Active means: 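a ratio of at most 0.6 or at least 1.3 marks altered migration and an active call; a mean nuclei count under 3300 forces an inactive call regardless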. Calls: active = migration changed (impaired or accelerated); inactive = no migration change, or too few cells.
This is an unselected part of about 2,000 reagents. In the full data, 549 (27%) were called active. 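Some migration ratios are negative; siRNAs with too few cells are inactive whatever their migration ratio.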 Entries without a mark were called inactive. Reagents against one gene are numbered here. Not all columns of the deposit are shown. Reagent sequences are not shown. The record does not give: the time to read-out.

target	siRNA no.	migration relative to mock	mean nuclei count
MESP2 (GeneID 145873)	1	-0.09 (active)	3525
MESP2 (GeneID 145873)	2	0.6 (active)	5256
MESP2 (GeneID 145873)	3	1.21	5744
MESP2 (GeneID 145873)	4	0.8	5655
PRR21 (GeneID 643905)	1	0.62	5664
PRR21 (GeneID 643905)	2	0.59 (active)	5415
PRR21 (GeneID 643905)	3	0.42 (active)	4930
PRR21 (GeneID 643905)	4	0.66	6314
SUPT4H1 (GeneID 6827)	1	1.03	6238
SUPT4H1 (GeneID 6827)	2	0.77	6256
SUPT4H1 (GeneID 6827)	3	0.55 (active)	5081
SUPT4H1 (GeneID 6827)	4	0.67	5336
MYL7 (GeneID 58498)	1	-0.14 (active)	3702
MYL7 (GeneID 58498)	2	0.55 (active)	4204
MYL7 (GeneID 58498)	3	0.56 (active)	5731
MYL7 (GeneID 58498)	4	0.88	6221
SF3B1 (GeneID 23451)	1	0.55 (active)	6128
SF3B1 (GeneID 23451)	2	0.28 (active)	4686
SF3B1 (GeneID 23451)	3	-0.12	2692
SF3B1 (GeneID 23451)	4	0.29 (active)	4282
PLPPR2 (GeneID 64748)	1	0.99	5252
PLPPR2 (GeneID 64748)	2	0.72	6342
PLPPR2 (GeneID 64748)	3	0.38 (active)	4716
PLPPR2 (GeneID 64748)	4	0.6 (active)	5738
CCS (GeneID 9973)	1	1.15	5746
CCS (GeneID 9973)	2	-1.16	2882
CCS (GeneID 9973)	3	0.14 (active)	5616
CCS (GeneID 9973)	4	0.48 (active)	4980
FAM209B (GeneID 388799)	1	0.98	5773
FAM209B (GeneID 388799)	2	0.83	6106
FAM209B (GeneID 388799)	3	0.84	5298
FAM209B (GeneID 388799)	4	0.91	4409
KLK5 (GeneID 25818)	1	0.27 (active)	5878
KLK5 (GeneID 25818)	2	0.78	7461
KLK5 (GeneID 25818)	3	0.66	6240
KLK5 (GeneID 25818)	4	-0.4	2144
UGT1A7 (GeneID 54577)	1	0.66	4865
UGT1A7 (GeneID 54577)	2	0.34 (active)	4190
UGT1A7 (GeneID 54577)	3	0.44 (active)	5212
UGT1A7 (GeneID 54577)	4	0.78	5434
BLM (GeneID 641)	1	0.73	6335
BLM (GeneID 641)	2	0.81	6498
BLM (GeneID 641)	3	1.4 (active)	5962
BLM (GeneID 641)	4	0.94	4508
GYG1 (GeneID 2992)	1	0.74	6551
GYG1 (GeneID 2992)	2	0.86	6029
GYG1 (GeneID 2992)	3	0.94	6647
GYG1 (GeneID 2992)	4	1.01	5294

Limited to “migration relative to mock”, for 5 of the entries above:
BLM (GeneID 641) #1	0.73
BLM (GeneID 641) #2	0.81
BLM (GeneID 641) #3	1.4 (active)
BLM (GeneID 641) #4	0.94
GYG1 (GeneID 2992) #1	0.74
